Laboratory results reported in publication PMC6015050.

T1: Ycf4 fused with HA tag at the N-terminus (HA-Ycf4) (C. reinhardtii) (UniProt O20030)
T1 sequence: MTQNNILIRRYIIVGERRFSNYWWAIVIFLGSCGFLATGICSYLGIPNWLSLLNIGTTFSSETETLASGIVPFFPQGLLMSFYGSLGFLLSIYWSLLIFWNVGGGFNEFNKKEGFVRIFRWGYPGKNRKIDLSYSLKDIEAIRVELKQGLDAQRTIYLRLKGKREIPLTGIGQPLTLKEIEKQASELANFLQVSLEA

T2: Ycf3 fused with HA-tag at the C-terminus (Ycf3-HA) (C. reinhardtii) (UniProt O20031)
T2 sequence: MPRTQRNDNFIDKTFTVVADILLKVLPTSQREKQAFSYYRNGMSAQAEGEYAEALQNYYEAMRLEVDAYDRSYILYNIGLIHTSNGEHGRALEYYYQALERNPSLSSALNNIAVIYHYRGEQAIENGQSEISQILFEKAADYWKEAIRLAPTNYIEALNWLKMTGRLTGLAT

B1: endogenous Ycf4 (protein, UniProt O20030 1-197)
chain: T1 sequence
B2: endogenous Ycf3 (protein, UniProt O20031 1-172)
chain: T2 sequence

Biological target: Y3IP1 fused with HA tag at its C-terminus (Y3IP1-HA) (C. reinhardtii)
Assay: co-IP; Y3IP1-HA from thylakoid extracts (1% α-DM) of the c-Y3IP1-HA strain on anti-HA beads, eluted with HA peptide; stained gel and immunoblot

Row | binding | Molecule
1 | binds | B1
2 | binds | B2

Biological target: T1, Ycf4 fused with HA tag at the N-terminus (HA-Ycf4) (C. reinhardtii)
Assay: co-IP; affinity-purified HA-Ycf4 preparation (anti-HA beads, β-DM), concentrated and fractionated by sucrose density gradient ultracentrifugation; fractions Y1, Y2, Y3 analysed by stained gel and immunoblot

Row | binding | Molecule
3 | binds | LHCA1
4 | no binding | LHCA2
5 | binds | LHCA3
6 | binds | LHCA4
7 | binds | LHCA5
8 | binds | LHCA6
9 | binds | LHCA7
10 | binds | LHCA8
11 | no binding | LHCA9
12 | binds | PSAI
13 | binds | PSAL

Biological target: T1, Ycf4 fused with HA tag at the N-terminus (HA-Ycf4) (C. reinhardtii)
Assay: co-IP; HA-Ycf4 from thylakoid extracts (1% β-DM) of the HA-ycf4 mutant on anti-HA beads, 1 h, eluted with HA peptide; stained gel and immunoblot; also from cells pulse-labelled with 35S (10 min) and chased 6 h, autoradiography; WT extract as negative control

Row | binding | Molecule
14 | no binding | Chlamyopsin protein (COP2)
15 | binds | PSAL
16 | binds | Ycf3-interacting protein 1 (Y3IP1)

Biological target: T2, Ycf3 fused with HA-tag at the C-terminus (Ycf3-HA) (C. reinhardtii)
Assay: co-IP; Ycf3-HA from thylakoid extracts (1% α-DM) of the ycf3-HA mutant on anti-HA beads in a spin column, 1 h, eluted with HA peptide; stained gel and immunoblot; also from cells pulse-labelled with 35S (10 min) and chased 6 h, autoradiography; WT extract as negative control

Row | binding | Molecule
17 | binds | Ycf3-interacting protein 1 (Y3IP1)

These are yes or no findings as the source states them, for the method shown. Binding seen in cells or lysates may run through a third protein. Binding can be weak; no strength is given. For some assays here: Tags and fused reporters may be left off the sequences shown.
